Where “and” joins values, the source holds several entries; their conditions need not be identical. Equal entries are not always repeated. Structures can show the parent of a compound that is named as a salt.
Key:
[1] = Dynamic headspace analysis of line-dried cotton treated with liquid laundry detergent; conditions: reference liquid laundry detergent with 0.075 mmol of each free volatile, ± standard deviation
[2] = Dynamic headspace analysis of line-dried cotton treated with liquid fabric softener; conditions: ± standard deviation; for Dynamic headspace concentration of the perfumery raw material itself, reference: reference fabric softener with 0.075 mmol of each free volatile; for Dynamic headspace concentration of 2-phenylethanol, profragrance / Dynamic headspace concentration of 2-phenylethyl formate, profragrance / Dynamic headspace concentration of undecanal, profragrance / Dynamic headspace concentration of dodecanal, profragrance / Dynamic headspace concentration of phenylacetaldehyde, profragrance / Dynamic headspace concentration of 2-phenylpropanal, profragrance / Dynamic headspace concentration of octanol, profragrance / Dynamic headspace concentration of octyl formate, profragrance / Dynamic headspace concentration of decanal, profragrance / Dynamic headspace concentration of 2-phenoxyethan-1-ol, profragrance / Dynamic headspace concentration of 2-phenoxyethyl formate, profragrance: fabric softener

| SMILES | Dynamic headspace concentration of the perfumery raw material itself, reference ([2]; 120 min sample (120-135 min)) | Dynamic headspace concentration of the perfumery raw material itself, reference ([2]; 60 min sample (60-75 min)) | Dynamic headspace concentration of 2-phenylethanol, profragrance ([2]; 60 min sample (60-75 min)) | Dynamic headspace concentration of 2-phenylethyl formate, profragrance ([2]; 60 min sample (60-75 min)) | Dynamic headspace concentration of 2-phenylethanol, profragrance ([2]; 120 min sample (120-135 min)) | Dynamic headspace concentration of 2-phenylethyl formate, profragrance ([2]; 120 min sample (120-135 min)) | also measured |
| --- | --- | --- | --- | --- | --- | --- | --- |
| CCCCCCCCCC(C)C=O (stereo not drawn) [2-methylundecanal, reference compound] | – | – | – | – | – | – | Dynamic headspace concentration of the perfumery raw material itself, reference ([1]; 60 min sample (60-75 min)): 6.3 ± 0.1 ng/L and 5.9 ± 0.81 ng/L; Dynamic headspace concentration of the perfumery raw material itself, reference ([1]; 120 min sample (120-135 min)): 14.9 ± 2.2 ng/L and 7.7 ± 0.9 ng/L |
| OCCOc1ccccc1 [2-phenoxyethan-1-ol, reference compound] | 9.7 ± 2.5 ng/L and 6.5 ± 1.4 ng/L | – | – | – | – | – | – |
| O=COCCOc1ccccc1 [2-phenoxyethyl formate, reference compound] | 2.3 ± 0.8 ng/L and 2.3 ± 0.6 ng/L | 2.5 ± 0.9 ng/L and 1.9 ± 0.6 ng/L | – | – | – | – | – |
| CC(C=O)c1ccccc1 (stereo not drawn) [2-phenylpropanal, reference compound] | 6.0 ± 4.9 ng/L | 4.8 ± 3.5 ng/L | – | – | – | – | – |
| CC(C=O)Cc1ccc(C(C)(C)C)cc1 (stereo not drawn) [3-(4-(tert-butyl)phenyl)-2-methylpropanal, reference compound] | 8.2 ± 2.5 ng/L | 5.8 ± 2.5 ng/L | – | – | – | – | Dynamic headspace concentration of the perfumery raw material itself, reference ([1]; 60 min sample (60-75 min)): 2.3 ± 1.3 ng/L; Dynamic headspace concentration of the perfumery raw material itself, reference ([1]; 120 min sample (120-135 min)): 2.9 ± 1.2 ng/L |
| CCCCCC(CC)OC=O (stereo not drawn) [3-octanyl formate, reference compound] | 11.6 ± 1.5 ng/L | 12.8 ± 1.8 ng/L | – | – | – | – | – |
| CCCCCCCCCCC=COCCc1ccccc1 [Compound 1, (2-(dodec-1-en-1-yloxy)ethyl)benzene] | – | – | 18.4 ± 1.6 ng/L | 128 ± 11.0 ng/L | 20.9 ± 1.0 ng/L | 125 ± 9.3 ng/L | Dynamic headspace concentration of undecanal, profragrance ([2]; 60 min sample (60-75 min)): 195 ± 21.1 ng/L; Dynamic headspace concentration of undecanal, profragrance ([2]; 120 min sample (120-135 min)): 240 ± 4.9 ng/L |
| CCCCCCCCCCCC=COCCc1ccccc1 [Compound 2, (2-(tridec-1-en-1-yloxy)ethyl)benzene] | – | – | 54.8 ± 8.6 ng/L | 187 ± 15.4 ng/L | 61.7 ± 8.7 ng/L | 174 ± 7.9 ng/L | Dynamic headspace concentration of dodecanal, profragrance ([2]; 60 min sample (60-75 min)): 448 ± 49.1 ng/L; Dynamic headspace concentration of dodecanal, profragrance ([2]; 120 min sample (120-135 min)): 479 ± 37.4 ng/L |
| CCCCCCC(C)O (stereo not drawn) [Compound 2-octanol, 2-octanol, reference compound] | 0.36 ± 0.04 ng/L | 0.4 ± 0.15 ng/L | – | – | – | – | – |
| C(=COCCc1ccccc1)Cc1ccccc1 [Compound 4, ((3-phenethoxyallyl)benzene)] | – | – | 25.9 ± 2.9 ng/L | 47.8 ± 9.6 ng/L | 32.9 ± 4.82 ng/L | 49.0 ± 11.0 ng/L | Dynamic headspace concentration of phenylacetaldehyde, profragrance ([2]; 60 min sample (60-75 min)): 47.5 ± 4.8 ng/L; Dynamic headspace concentration of phenylacetaldehyde, profragrance ([2]; 120 min sample (120-135 min)): 48.0 ± 7.6 ng/L |
| CC(C=COCCc1ccccc1)c1ccccc1 (stereo not drawn) [Compound 5, (4-phenethoxybut-3-en-2-yl)benzene] | – | – | 29.8 ± 9.2 ng/L | 135 ± 59.8 ng/L | 26.5 ± 10.1 ng/L | 97.4 ± 50.0 ng/L | Dynamic headspace concentration of 2-phenylpropanal, profragrance ([2]; 60 min sample (60-75 min)): 565 ± 199 ng/L; Dynamic headspace concentration of 2-phenylpropanal, profragrance ([2]; 120 min sample (120-135 min)): 348 ± 103 ng/L |
| CCCCCCCCCCC=COCCCCCCCC [Compound 7, 1-(octyloxy)dodec-1-ene] | – | – | – | – | – | – | Dynamic headspace concentration of octanol, profragrance ([2]; 60 min sample (60-75 min)): 201 ± 30.2 ng/L; Dynamic headspace concentration of octyl formate, profragrance ([2]; 60 min sample (60-75 min)): 37.2 ± 1.2 ng/L; Dynamic headspace concentration of undecanal, profragrance ([2]; 60 min sample (60-75 min)): 185 ± 18.4 ng/L; Dynamic headspace concentration of octanol, profragrance ([2]; 120 min sample (120-135 min)): 248 ± 41.2 ng/L; Dynamic headspace concentration of octyl formate, profragrance ([2]; 120 min sample (120-135 min)): 31.2 ± 4.3 ng/L; Dynamic headspace concentration of undecanal, profragrance ([2]; 120 min sample (120-135 min)): 203 ± 34.2 ng/L |
| CCCCCCCCCC=COCCc1ccccc1 [Compound 9, (2-(undec-1-en-1-yloxy)ethyl)benzene] | – | – | 27.6 ± 3.3 ng/L | 168 ± 17.8 ng/L | 24.9 ± 8.2 ng/L | 140 ± 32.9 ng/L | Dynamic headspace concentration of decanal, profragrance ([2]; 60 min sample (60-75 min)): 399 ± 35.5 ng/L; Dynamic headspace concentration of decanal, profragrance ([2]; 120 min sample (120-135 min)): 346 ± 38.9 ng/L |
| CCCCCCCCCC=COCCOc1ccccc1 [Compound 10, (2-(undec-1-en-1-yloxy)ethoxy)benzene] | – | – | – | – | – | – | Dynamic headspace concentration of 2-phenoxyethan-1-ol, profragrance ([2]; 60 min sample (60-75 min)): 40.1 ± 10 ng/L; Dynamic headspace concentration of 2-phenoxyethyl formate, profragrance ([2]; 60 min sample (60-75 min)): 113 ± 0.6 ng/L; Dynamic headspace concentration of decanal, profragrance ([2]; 60 min sample (60-75 min)): 185 ± 3.6 ng/L; Dynamic headspace concentration of 2-phenoxyethan-1-ol, profragrance ([2]; 120 min sample (120-135 min)): 36.5 ± 3.8 ng/L; Dynamic headspace concentration of 2-phenoxyethyl formate, profragrance ([2]; 120 min sample (120-135 min)): 100 ± 5.8 ng/L; Dynamic headspace concentration of decanal, profragrance ([2]; 120 min sample (120-135 min)): 130 ± 3.6 ng/L |

Source: US20250049660A1, “ENOL ETHER PROPERFUME” (FIRMENICH SA, priority 2021, published 2025)
